Experimental findings from article PMC10018360 are described below.

Sequences of proteins named here, by UniProt entry; tags and fusion partners are left off.
UniProt Q9Y3E1: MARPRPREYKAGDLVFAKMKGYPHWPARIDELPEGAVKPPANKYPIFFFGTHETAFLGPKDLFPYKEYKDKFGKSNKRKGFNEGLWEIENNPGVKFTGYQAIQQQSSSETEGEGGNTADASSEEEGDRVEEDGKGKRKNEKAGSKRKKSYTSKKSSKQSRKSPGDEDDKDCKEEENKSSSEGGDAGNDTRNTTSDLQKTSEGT
UniProt Q12888: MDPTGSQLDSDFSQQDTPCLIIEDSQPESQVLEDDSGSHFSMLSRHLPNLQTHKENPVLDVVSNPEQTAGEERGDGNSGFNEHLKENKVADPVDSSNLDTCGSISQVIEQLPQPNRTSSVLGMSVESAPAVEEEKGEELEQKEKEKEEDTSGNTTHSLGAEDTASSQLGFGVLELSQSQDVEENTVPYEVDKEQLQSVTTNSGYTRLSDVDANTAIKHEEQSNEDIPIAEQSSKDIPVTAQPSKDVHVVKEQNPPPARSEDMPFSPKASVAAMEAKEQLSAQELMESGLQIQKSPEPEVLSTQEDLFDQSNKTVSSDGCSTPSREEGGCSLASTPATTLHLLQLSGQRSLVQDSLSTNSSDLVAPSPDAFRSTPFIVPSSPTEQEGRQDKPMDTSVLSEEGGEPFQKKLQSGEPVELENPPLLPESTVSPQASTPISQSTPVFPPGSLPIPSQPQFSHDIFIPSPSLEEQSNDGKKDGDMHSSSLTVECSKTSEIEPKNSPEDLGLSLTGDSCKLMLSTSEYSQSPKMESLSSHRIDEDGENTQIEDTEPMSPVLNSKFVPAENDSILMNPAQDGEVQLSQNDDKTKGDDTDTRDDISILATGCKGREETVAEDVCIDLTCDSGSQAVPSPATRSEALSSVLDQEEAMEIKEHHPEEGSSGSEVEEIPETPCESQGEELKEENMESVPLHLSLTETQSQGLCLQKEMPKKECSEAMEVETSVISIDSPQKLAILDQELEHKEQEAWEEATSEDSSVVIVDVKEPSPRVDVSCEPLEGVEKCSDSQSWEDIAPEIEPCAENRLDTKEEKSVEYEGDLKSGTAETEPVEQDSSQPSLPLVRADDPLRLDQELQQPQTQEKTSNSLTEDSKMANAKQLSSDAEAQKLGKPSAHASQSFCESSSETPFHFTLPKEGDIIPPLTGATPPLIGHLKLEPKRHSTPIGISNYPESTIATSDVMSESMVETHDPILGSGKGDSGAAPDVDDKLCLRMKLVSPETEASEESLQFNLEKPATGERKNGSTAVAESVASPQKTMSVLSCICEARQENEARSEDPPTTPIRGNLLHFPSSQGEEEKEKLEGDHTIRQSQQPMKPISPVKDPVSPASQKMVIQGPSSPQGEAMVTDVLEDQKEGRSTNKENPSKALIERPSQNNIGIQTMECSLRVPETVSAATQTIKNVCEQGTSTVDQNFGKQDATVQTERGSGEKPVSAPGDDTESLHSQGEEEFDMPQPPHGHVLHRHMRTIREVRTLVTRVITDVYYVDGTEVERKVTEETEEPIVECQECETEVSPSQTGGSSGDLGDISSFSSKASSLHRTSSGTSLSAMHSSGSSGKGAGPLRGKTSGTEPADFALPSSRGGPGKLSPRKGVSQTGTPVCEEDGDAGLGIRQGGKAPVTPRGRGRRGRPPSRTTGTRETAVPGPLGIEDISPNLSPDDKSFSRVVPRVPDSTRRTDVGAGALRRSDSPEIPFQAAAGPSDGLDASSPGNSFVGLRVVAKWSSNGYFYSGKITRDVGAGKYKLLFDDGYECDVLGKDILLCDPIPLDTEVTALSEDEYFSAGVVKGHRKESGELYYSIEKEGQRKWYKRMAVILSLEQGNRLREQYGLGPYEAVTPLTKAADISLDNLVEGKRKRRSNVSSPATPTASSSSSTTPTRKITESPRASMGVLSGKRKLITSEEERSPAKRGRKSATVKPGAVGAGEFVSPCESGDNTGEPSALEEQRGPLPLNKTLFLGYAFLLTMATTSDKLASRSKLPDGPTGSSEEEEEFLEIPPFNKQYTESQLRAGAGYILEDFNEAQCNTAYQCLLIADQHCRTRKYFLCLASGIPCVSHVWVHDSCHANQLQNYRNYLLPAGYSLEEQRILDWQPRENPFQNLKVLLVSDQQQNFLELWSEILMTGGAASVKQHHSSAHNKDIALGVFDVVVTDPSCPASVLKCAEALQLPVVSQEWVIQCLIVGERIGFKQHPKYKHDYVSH

In this test the target is SFB-tagged human HDGFRP3 (wild type) (human) (UniProt Q9Y3E1). The test can be described thus: affinity purification with mass spectrometry; tandem affinity purification (streptavidin beads, biotin elution, S protein beads) from chromatin fractions of HEK293T cells stably expressing the SFB-tagged bait; also with damaged chromatin fraction.

No constants are given. Whether binding was seen depends on the method and setting. In cells and extracts the contact can be indirect. A yes stands for co-enrichment or nearness to the bait. Other partners may have been found.

On to “53BP1, endogenous (from UniProt Q12888 1-1972)”, for which the binding result is “binds”.
